Measured values published in publication PMC9727023.
These are yes or no findings as the source states them, for the method shown. For some assays here: In cells and extracts the contact can be indirect. Some binding calls cover weakened binding; strength is not graded here.

Protein sequences, listed by entry. Tags and fused reporters are not part of them. Residues count along the entry.
UniProt Q8TD26: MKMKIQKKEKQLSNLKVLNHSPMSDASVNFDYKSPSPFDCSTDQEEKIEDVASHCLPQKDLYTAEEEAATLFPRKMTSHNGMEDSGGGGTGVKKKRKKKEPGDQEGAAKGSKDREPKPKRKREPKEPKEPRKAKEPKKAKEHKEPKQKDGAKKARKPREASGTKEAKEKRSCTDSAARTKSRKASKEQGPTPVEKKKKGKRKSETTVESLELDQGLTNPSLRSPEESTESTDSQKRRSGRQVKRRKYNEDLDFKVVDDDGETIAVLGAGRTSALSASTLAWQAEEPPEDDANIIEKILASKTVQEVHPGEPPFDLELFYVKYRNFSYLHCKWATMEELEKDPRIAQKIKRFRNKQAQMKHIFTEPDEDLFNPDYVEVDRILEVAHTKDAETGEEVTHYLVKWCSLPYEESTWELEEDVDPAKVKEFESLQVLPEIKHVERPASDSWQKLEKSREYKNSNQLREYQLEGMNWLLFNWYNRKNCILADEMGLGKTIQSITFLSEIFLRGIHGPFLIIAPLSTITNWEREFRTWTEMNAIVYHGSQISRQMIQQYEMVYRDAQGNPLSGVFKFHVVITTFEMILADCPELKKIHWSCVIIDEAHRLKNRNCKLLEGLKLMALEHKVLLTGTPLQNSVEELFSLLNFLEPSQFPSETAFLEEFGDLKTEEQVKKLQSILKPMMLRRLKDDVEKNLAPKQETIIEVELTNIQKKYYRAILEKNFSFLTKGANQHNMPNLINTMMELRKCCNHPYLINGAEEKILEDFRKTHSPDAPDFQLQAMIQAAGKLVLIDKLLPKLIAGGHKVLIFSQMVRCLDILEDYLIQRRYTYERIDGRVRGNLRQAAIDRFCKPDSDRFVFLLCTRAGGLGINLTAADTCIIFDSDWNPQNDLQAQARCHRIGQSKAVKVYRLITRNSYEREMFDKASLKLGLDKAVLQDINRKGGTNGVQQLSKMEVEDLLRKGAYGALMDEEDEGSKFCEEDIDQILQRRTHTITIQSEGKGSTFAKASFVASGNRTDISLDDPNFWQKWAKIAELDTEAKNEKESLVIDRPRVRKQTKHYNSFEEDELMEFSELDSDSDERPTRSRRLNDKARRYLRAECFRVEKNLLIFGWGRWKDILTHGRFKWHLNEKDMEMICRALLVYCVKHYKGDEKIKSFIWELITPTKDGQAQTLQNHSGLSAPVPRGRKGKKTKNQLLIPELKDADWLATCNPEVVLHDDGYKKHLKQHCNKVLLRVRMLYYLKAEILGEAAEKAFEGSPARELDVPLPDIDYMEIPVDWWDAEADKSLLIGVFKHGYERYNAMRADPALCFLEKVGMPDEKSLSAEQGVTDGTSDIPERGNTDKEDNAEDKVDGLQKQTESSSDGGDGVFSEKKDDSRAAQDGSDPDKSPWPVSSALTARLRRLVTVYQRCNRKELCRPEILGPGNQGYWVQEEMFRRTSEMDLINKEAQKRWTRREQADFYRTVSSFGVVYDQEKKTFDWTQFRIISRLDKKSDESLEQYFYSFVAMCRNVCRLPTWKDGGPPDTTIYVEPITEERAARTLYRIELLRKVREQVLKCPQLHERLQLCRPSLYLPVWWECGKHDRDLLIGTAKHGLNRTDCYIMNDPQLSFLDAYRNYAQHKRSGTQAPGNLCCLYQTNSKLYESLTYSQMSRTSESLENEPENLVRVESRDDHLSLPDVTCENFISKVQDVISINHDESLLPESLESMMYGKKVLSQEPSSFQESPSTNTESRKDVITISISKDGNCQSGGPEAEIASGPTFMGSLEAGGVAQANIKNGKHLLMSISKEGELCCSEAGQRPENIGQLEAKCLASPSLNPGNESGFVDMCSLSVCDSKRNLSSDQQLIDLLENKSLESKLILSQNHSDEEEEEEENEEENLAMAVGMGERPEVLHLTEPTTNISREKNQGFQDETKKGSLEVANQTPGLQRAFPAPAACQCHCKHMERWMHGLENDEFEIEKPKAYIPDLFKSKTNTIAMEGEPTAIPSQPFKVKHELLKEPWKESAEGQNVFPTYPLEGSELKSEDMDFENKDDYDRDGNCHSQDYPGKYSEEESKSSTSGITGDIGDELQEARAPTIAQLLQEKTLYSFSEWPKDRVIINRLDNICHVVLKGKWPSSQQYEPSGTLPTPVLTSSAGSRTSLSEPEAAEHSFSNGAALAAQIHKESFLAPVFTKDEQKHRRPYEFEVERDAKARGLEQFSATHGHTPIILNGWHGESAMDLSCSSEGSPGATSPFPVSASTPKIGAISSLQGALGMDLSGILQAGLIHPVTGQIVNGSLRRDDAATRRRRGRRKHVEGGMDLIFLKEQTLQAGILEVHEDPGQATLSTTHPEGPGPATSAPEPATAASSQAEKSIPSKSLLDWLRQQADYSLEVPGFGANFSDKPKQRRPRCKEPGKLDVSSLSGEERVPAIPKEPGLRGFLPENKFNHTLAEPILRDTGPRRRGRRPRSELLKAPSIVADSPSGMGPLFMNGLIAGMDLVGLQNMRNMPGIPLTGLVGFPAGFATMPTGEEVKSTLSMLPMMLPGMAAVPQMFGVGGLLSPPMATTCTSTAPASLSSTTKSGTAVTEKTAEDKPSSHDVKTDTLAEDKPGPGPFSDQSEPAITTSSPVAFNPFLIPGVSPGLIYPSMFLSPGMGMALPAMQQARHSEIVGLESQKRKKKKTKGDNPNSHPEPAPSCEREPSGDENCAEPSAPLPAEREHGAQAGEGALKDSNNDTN
UniProt P35222: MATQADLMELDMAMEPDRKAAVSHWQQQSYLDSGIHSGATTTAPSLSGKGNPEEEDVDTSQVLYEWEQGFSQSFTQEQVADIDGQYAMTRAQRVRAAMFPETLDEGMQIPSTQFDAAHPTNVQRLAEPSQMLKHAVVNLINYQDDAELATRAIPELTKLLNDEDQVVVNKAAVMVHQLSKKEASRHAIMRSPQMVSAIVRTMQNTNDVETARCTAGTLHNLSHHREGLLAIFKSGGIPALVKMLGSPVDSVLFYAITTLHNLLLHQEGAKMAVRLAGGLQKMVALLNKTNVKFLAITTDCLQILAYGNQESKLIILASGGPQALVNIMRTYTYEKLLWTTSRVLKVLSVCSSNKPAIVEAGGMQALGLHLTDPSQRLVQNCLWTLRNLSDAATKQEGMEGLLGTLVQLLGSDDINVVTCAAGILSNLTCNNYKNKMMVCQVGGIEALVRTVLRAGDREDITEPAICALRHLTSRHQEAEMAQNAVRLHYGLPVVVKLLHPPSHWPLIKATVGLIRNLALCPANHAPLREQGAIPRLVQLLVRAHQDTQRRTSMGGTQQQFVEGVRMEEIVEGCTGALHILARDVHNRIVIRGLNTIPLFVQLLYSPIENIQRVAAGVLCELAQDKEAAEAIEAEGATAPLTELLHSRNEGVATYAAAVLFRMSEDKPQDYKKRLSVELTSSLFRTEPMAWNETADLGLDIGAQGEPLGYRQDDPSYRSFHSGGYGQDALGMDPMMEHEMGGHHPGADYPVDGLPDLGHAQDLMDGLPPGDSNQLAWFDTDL
UniProt P51970: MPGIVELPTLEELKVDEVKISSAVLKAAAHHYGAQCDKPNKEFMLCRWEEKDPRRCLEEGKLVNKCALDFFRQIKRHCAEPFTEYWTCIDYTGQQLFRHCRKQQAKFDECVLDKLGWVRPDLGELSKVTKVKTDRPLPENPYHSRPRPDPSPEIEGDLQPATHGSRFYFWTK
UniProt Q9NQB0: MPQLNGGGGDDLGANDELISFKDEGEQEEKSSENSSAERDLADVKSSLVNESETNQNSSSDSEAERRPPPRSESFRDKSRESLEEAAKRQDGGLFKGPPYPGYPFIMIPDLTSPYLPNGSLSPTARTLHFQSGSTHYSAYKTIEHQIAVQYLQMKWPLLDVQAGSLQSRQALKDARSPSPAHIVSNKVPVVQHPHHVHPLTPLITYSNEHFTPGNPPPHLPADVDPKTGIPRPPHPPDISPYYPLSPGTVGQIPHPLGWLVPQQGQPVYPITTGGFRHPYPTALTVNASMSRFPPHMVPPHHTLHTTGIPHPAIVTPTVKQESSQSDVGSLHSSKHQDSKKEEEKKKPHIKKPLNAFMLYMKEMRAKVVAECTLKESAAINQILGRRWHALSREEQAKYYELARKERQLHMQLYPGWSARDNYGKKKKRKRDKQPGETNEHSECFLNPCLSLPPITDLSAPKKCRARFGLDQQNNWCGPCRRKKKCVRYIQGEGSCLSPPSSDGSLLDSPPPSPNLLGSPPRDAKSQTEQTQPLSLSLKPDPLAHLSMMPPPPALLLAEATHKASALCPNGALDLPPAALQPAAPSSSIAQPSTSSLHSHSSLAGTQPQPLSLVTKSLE
UniProt P49841: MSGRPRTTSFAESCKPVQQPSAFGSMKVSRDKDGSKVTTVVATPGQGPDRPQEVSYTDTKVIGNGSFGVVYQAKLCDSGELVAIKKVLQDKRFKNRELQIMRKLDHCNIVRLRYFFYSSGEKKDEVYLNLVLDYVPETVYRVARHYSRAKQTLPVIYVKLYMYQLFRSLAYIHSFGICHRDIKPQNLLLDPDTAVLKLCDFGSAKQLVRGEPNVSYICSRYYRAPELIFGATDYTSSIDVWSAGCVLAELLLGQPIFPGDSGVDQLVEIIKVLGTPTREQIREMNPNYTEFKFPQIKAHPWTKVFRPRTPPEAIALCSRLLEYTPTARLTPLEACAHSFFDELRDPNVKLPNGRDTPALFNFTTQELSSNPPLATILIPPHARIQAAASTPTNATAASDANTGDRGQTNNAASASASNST
UniProt P25705, residues 44-553: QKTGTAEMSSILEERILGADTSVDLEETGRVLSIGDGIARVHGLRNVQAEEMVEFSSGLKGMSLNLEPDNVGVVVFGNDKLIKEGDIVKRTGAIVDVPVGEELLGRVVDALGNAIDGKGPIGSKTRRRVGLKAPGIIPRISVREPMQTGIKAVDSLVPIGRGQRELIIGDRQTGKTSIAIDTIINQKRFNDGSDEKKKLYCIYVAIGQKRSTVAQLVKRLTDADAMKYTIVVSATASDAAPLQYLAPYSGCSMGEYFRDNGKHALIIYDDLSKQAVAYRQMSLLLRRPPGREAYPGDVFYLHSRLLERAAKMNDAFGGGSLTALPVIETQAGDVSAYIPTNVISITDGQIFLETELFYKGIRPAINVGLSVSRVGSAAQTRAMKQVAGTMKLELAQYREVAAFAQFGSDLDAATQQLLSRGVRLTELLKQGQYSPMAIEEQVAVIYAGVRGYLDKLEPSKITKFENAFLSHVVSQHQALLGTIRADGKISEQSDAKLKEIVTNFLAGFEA
UniProt Q969H0: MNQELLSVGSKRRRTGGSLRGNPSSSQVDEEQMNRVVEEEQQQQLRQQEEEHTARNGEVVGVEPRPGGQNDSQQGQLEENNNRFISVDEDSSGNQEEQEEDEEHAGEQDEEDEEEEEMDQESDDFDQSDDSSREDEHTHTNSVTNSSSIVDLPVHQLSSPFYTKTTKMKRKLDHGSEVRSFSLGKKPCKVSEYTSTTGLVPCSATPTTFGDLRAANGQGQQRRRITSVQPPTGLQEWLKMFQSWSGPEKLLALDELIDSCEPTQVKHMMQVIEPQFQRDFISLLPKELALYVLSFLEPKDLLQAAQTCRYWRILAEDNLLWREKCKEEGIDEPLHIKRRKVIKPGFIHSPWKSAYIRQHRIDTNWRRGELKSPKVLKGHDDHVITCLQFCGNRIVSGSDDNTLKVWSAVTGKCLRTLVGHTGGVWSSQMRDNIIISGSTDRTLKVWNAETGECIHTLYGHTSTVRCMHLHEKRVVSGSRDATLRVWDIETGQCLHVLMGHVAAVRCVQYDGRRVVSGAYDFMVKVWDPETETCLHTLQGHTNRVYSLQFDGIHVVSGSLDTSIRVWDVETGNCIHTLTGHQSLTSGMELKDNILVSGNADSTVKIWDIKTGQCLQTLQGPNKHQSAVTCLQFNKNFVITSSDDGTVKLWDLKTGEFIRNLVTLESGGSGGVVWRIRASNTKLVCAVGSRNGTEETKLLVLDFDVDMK

T1: TMEM65 (UniProt Q6PI78)
T1 sequence: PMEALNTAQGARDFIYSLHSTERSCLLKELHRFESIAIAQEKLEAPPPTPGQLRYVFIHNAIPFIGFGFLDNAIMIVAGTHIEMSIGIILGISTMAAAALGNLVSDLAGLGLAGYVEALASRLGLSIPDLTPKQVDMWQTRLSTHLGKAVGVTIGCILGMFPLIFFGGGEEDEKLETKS

B1: Protoporphyrinogen oxidase (PPOX) (enzyme, UniProt P50336 1-477)
chain: MGRTVVVLGGGISGLAASYHLSRAPCPPKVVLVESSERLGGWIRSVRGPNGAIFELGPRGIRPAGALGARTLLLVSELGLDSEVLPVRGDHPAAQNRFLYVGGALHALPTGLRGLLRPSPPFSKPLFWAGLRELTKPRGKEPDETVHSFAQRRLGPEVASLAMDSLCRGVFAGNSRELSIRSCFPSLFQAEQTHRSILLGLLLGAGRTPQPDSALIRQALAERWSQWSLRGGLEMLPQALETHLTSRGVSVLRGQPVCGLSLQAEGRWKVSLRDSSLEADHVISAIPASVLSELLPAEAAPLARALSAITAVSVAVVNLQYQGAHLPVQGFGHLVPSSEDPGVLGIVYDSVAFPEQDGSPPGLRVTVMLGGSWLQTLEASGCVLSQELFQQRAQEAAATQLGLKEMPSHCLVHLHKNCIPQYTLGHWQKLESARQFLTAHRLPLTLAGASYEGVAVNDCIESGRQAAVSVLGTEPNS

Tests used:
[1] = molecular target: Chromodomain helicase DNA binding protein 6 (CHD6), endogenous (human (endogenous in HCT116)) (UniProt Q8TD26); assay: co-IP; endogenous proteins; HCT116 lysates in IP lysis buffer (50 mM Tris-HCl pH 7.5, 150 mM NaCl, 0.1% Triton X-100, 0.1% NP-40, 1 mM EDTA) incubated with CHD6 antibody or IgG at 4 °C overnight, protein A/G agarose, immunoblot
[2] = molecular target: T1, TMEM65; assay: SEC; gel filtration, fractions immunoblotted for TMEM65 and mitochondrial proteins; details only in Supplementary Fig. S5j
[3] = molecular target: CHD6, transfected (gel filtration, Fig. 7b) (human) (UniProt Q8TD26); assay: SEC; lysate of CHD6-transfected HEK293T cells on Superose 6, eluted with PBS pH 7.4 at 0.4 mL/min, 40 fractions immunoblotted; co-elution at fractions 29-32 (~2000 Kd)
[4] = molecular target: CHD6, exogenous (Fig. 4f) (human) (UniProt Q8TD26); assay: co-IP; 293T cells transfected with the indicated plasmids; immunoprecipitated with an anti-Flag antibody, immunoblot
[5] = molecular target: Myc-tagged CHD6 (human) (UniProt Q8TD26); assay: co-IP; 293T cells transfected with Myc-tagged CHD6 and Flag-tagged FBXW7; lysates pulled down with Myc-tagged magnet beads, immunoblot
[6] = molecular target: CHD6 (domain mapping assay) (human) (UniProt Q8TD26); assay: domain mapping assay; CHD6 constructs tested for interaction with TCF4; details only in Supplementary Fig. S7d-g
[7] = molecular target: T1, TMEM65; assay: co-IP; TMEM65 and PPOX; cells, bait and antibody shown only in Supplementary Fig. S5i

Molecule	binding [1]	binding [2]	further results
β-catenin, endogenous (HCT116) (from UniProt P35222 1-781)	binds	–	–
NDUFA8 (from UniProt P51970 1-172)	–	binds	–
TCF4, endogenous (HCT116) (from UniProt Q9NQB0 1-619)	binds	–	–
TCF4 in HEK293T lysate (from UniProt Q9NQB0 1-619)	–	–	binding [3]: binds
GSK3β, exogenous (Fig. 4f) (from UniProt P49841 1-420) (enzyme)	–	–	binding [4]: binds
ATP5a (from UniProt P25705 44-553)	–	binds	–
FBXW7α, endogenous (from UniProt Q969H0 1-707)	binds	–	–
Flag-tagged FBXW7 (from UniProt Q969H0 1-707)	–	–	binding [5]: binds
β-catenin in HEK293T lysate (from UniProt P35222 1-781)	–	–	binding [3]: binds
TCF4 (domain mapping assay) (from UniProt Q9NQB0 1-619)	–	–	binding [6]: binds
Glycogen synthase kinase-3β (GSK3β), endogenous (from UniProt P49841 1-420) (enzyme)	binds	–	–
ATP5b (from UniProt P06576 48-529)	–	binds	–
B1	–	binds	binding [7]: binds
